# Source: patent US20250283871A1, “COMPOSITIONS AND METHODS FOR MODULATING THE INTERACTION BETWEEN SS18-SSX FUSION ONCOPROTEIN AND NUCLEOSOMES” (Dana-Farber Cancer Institute, Inc., priority 2020, published 2025)
# B1: CFAP20 (protein, UniProt Q9Y6A4 1-193, looked up)
# Cilia- and …: MFKNTFQSGFLSILYSIGSKPLQIWDKKVRNGHIKRITDNDIQSLVLEIEGTNVSTTYITCPADPKKTLGIKLPFLVMIIKNLKKYFTFEVQVLDDKNVRRRFRASNYQSTTRVKPFICTMPMRLDDGWNQIQFNLLDFTRRAYGTNYIETLRVQIHANCRIRRVYFSDRLYSEDELPAEFKLYLPVQNKAKQ
# B2: SF3A1 (protein, UniProt Q15459 2-793, looked up)
# Splicing factor 3A subunit 1: PAGPVQAVPPPPPVPTEPKQPTEEEASSKEDSAPSKPVVGIIYPPPEVRNIVDKTASFVARNGPEFEARIRQNEINNPKFNFLNPNDPYHAYYRHKVSEFKEGKAQEPSAAIPKVMQQQQQTTQQQLPQKVQAQVIQETIVPKEPPPEFEFIADPPSISAFDLDVVKLTAQFVARNGRQFLTQLMQKEQRNYQFDFLRPQHSLFNYFTKLVEQYTKILIPPKGLFSKLKKEAENPREVLDQVCYRVEWAKFQERERKKEEEEKEKERVAYAQIDWHDFVVVETVDFQPNEQGNFPPPTTPEELGARILIQERYEKFGESEEVEMEVESDEEDDKQEKAEEPPSQLDQDTQVQDMDEGSDDEEEGQKVPPPPETPMPPPLPPTPDQVIVRKDYDPKASKPLPPAPAPDEYLVSPITGEKIPASKMQEHMRIGLLDPRWLEQRDRSIREKQSDDEVYAPGLDIESSLKQLAERRTDIFGVEETAIGKKIGEEEIQKPEEKVTWDGHSGSMARTQQAAQANITLQEQIEAIHKAKGLVPEDDTKEKIGPSKPNEIPQQPPPPSSATNIPSSAPPITSVPRPPTMPPPVRTTVVSAVPVMPRPPMASVVRLPPGSVIAPMPPIIHAPRINVVPMPPSAPPIMAPRPPPMIVPTAFVPAPPVAPVPAPAPMPPVHPPPPMEDEPTSKKLKTEDSLMPEEEFLRRNKGPVSIKVQVPNMQDKTEWKLNGQVLVFTLPLTDQVSVIKVKIHEATGMPAGKQKLQYEGIFIKDSNSLAYYNMANGAVIHLALKERGGRKK
# B3: RRP1 (protein, UniProt P56182 1-461, looked up)
# Ribosomal RNA processing …: MVSRVQLPPEIQLAQRLAGNEQVTRDRAVRKLRKYIVARTQRAAGGFTHDELLKVWKGLFYCMWMQDKPLLQEELGRTISQLVHAFQTTEAQHLFLQAFWQTMNREWTGIDRLRLDKFYMLMRMVLNESLKVLKMQGWEERQIEELLELLMTEILHPSSQAPNGVKSHFIEIFLEELTKVGAEELTADQNLKFIDPFCRIAARTKDSLVLNNITRGIFETIVEQAPLAIEDLLNELDTQDEEVASDSDESSEGGERGDALSQKRSEKPPAGSICRAEPEAGEEQAGDDRDSGGPVLQFDYEAVANRLFEMASRQSTPSQNRKRLYKVIRKLQDLAGGIFPEDEIPEKACRRLLEGRRQKKTKKQKRLLRLQQERGKGEKEPPSPGMERKRSRRRGVGADPEARAEAGEQPGTAERALLRDQPRGRGQRGARQRRRTPRPLTSARAKAANVQEPEKKKKRRE
# B4: PHC1 (protein, UniProt P78364 1-1004, looked up)
# Polyhomeotic-like protein 1: METESEQNSNSTNGSSSSGGSSRPQIAQMSLYERQAVQALQALQRQPNAAQYFHQFMLQQQLSNAQLHSLAAVQQATIAASRQASSPNTSTTQQQTTTTQASINLATTSAAQLISRSQSVSSPSATTLTQSVLLGNTTSPPLNQSQAQMYLRPQLGNLLQVNRTLGRNVPLASQLILMPNGAVAAVQQEVPSAQSPGVHADADQVQNLAVRNQQASAQGPQMQGSTQKAIPPGASPVSSLSQASSQALAVAQASSGATNQSLNLSQAGGGSGNSIPGSMGPGGGGQAHGGLGQLPSSGMGGGSCPRKGTGVVQPLPAAQTVTVSQGSQTEAESAAAKKAEADGSGQQNVGMNLTRTATPAPSQTLISSATYTQIQPHSLIQQQQQIHLQQKQVVIQQQIAIHHQQQFQHRQSQLLHTATHLQLAQQQQQQQQQQQQQQQPQATTLTAPQPPQVPPTQQVPPSQSQQQAQTLVVQPMLQSSPLSLPPDAAPKPPIPIQSKPPVAPIKPPQLGAAKMSAAQQPPPHIPVQVVGTRQPGTAQAQALGLAQLAAAVPTSRGMPGTVQSGQAHLASSPPSSQAPGALQECPPTLAPGMTLAPVQGTAHVVKGGATTSSPVVAQVPAAFYMQSVHLPGKPQTLAVKRKADSEEERDDVSTLGSMLPAKASPVAESPKVMDEKSSLGEKAESVANVNANTPSSELVALTPAPSVPPPTLAMVSRQMGDSKPPQAIVKPQILTHIIEGFVIQEGAEPFPVGCSQLLKESEKPLQTGLPTGLTENQSGGPLGVDSPSAELDKKANLLKCEYCGKYAPAEQFRGSKRFCSMTCAKRYNVSCSHQFRLKRKKMKEFQEANYARVRRRGPRRSSSDIARAKIQGKCHRGQEDSSRGSDNSSYDEALSPTSPGPLSVRAGHGERDLGNPNTAPPTPELHGINPVFLSSNPSRWSVEEVYEFIASLQGCQEIAEEFRSQEIDGQALLLLKEEHLMSAMNIKLGPALKICAKINVLKET
# B5: VDAC3 (protein, UniProt Q9Y277 2-283, looked up)
# Non-selective voltage-gated …: CNTPTYCDLGKAAKDVFNKGYGFGMVKIDLKTKSCSGVEFSTSGHAYTDTGKASGNLETKYKVCNYGLTFTQKWNTDNTLGTEISWENKLAEGLKLTLDTIFVPNTGKKSGKLKASYKRDCFSVGSNVDIDFSGPTIYGWAVLAFEGWLAGYQMSFDTAKSKLSQNNFALGYKAADFQLHTHVNDGTEFGGSIYQKVNEKIETSINLAWTAGSNNTRFGIAAKYMLDCRTSLSAKVNNASLIGLGYTQTLRPGVKLTLSALIDGKNFSAGGHKVGLGFELEA
# B6: ATP5A1 (protein, UniProt P25705 44-553, looked up)
# ATP synthase F(1) complex …: QKTGTAEMSSILEERILGADTSVDLEETGRVLSIGDGIARVHGLRNVQAEEMVEFSSGLKGMSLNLEPDNVGVVVFGNDKLIKEGDIVKRTGAIVDVPVGEELLGRVVDALGNAIDGKGPIGSKTRRRVGLKAPGIIPRISVREPMQTGIKAVDSLVPIGRGQRELIIGDRQTGKTSIAIDTIINQKRFNDGSDEKKKLYCIYVAIGQKRSTVAQLVKRLTDADAMKYTIVVSATASDAAPLQYLAPYSGCSMGEYFRDNGKHALIIYDDLSKQAVAYRQMSLLLRRPPGREAYPGDVFYLHSRLLERAAKMNDAFGGGSLTALPVIETQAGDVSAYIPTNVISITDGQIFLETELFYKGIRPAINVGLSVSRVGSAAQTRAMKQVAGTMKLELAQYREVAAFAQFGSDLDAATQQLLSRGVRLTELLKQGQYSPMAIEEQVAVIYAGVRGYLDKLEPSKITKFENAFLSHVVSQHQALLGTIRADGKISEQSDAKLKEIVTNFLAGFEA
# B7: DDX3Y (protein, UniProt O15523 2-660, looked up)
# ATP-dependent RNA helicase …: SHVVVKNDPELDQQLANLDLNSEKQSGGASTASKGRYIPPHLRNREASKGFHDKDSSGWSCSKDKDAYSSFGSRDSRGKPGYFSERGSGSRGRFDDRGRSDYDGIGNRERPGFGRFERSGHSRWCDKSVEDDWSKPLPPSERLEQELFSGGNTGINFEKYDDIPVEATGSNCPPHIENFSDIDMGEIIMGNIELTRYTRPTPVQKHAIPIIKGKRDLMACAQTGSGKTAAFLLPILSQIYTDGPGEALKAVKENGRYGRRKQYPISLVLAPTRELAVQIYEEARKFSYRSRVRPCVVYGGADIGQQIRDLERGCHLLVATPGRLVDMMERGKIGLDFCKYLVLDEADRMLDMGFEPQIRRIVEQDTMPPKGVRHTMMFSATFPKEIQMLARDFLDEYIFLAVGRVGSTSENITQKVVWVEDLDKRSFLLDILGATGSDSLTLVFVETKKGADSLEDFLYHEGYACTSIHGDRSQRDREEALHQFRSGKSPILVATAVAARGLDISNVRHVINFDLPSDIEEYVHRIGRTGRVGNLGLATSFFNEKNMNITKDLLDLLVEAKQEVPSWLENMAYEHHYKGGSRGRSKSNRFSGGFGARDYRQSSGSSSSGFGASRGSSSRSGGGGYGNSRGFGGGGYGGFYNSDGYGGNYNSQGVDWWGN
# B8: SNRNP40 (protein)
# chain: MIEQQKRKGPELPLVPVKRQRHELLLGAGSGPGAGQQQATPGALLQAGPPRCSSLQAPIMLLSGHEGEVYCCKFHPNGSTLASAGFDRLILLWNVYGDCDNYATLKGHSGAVMELHYNTDGSMLFSASTDKTVAVWDSETGERVKRLKGHTSFVNSCYPARRGPQLVCTGSDDGTVKLWDIRKKAAIQTFQNTYQVLAVTFNDTSDQIISGGIDNDIKVWDLRQNKLTYTMRGHADSVTGLSLSSEGSYLLSNAMDNTVRVWDVRPFAPKERCVKIFQGNVHNFEKNLLRCSWSPDGSKIAAGSADRFVYVWDTTSRRILYKLPGHAGSINEVAFHPDEPIIISASSDKRLYMGEIQ
# Test system: BAF complex subunits and histone proteins
# Test: Mass spectrometry proteomics of purified HA-SS18 WT and HA-SS18-SSX1 complexes (Tables 5A-5E)
# Set-up: species or system human
# Conditions: for Total / Unique: HA-SS18SSX1_CHR_peptides; for Total: total peptides of the identified protein; for Unique: unique peptides of the identified protein
# [1] = HA-SS18WT_CHR_peptides: protein identified in HA-SS18 WT BAF complex purification from nuclease-treated solubilized chromatin (CHR), HEK-293T
# [2] = HA-SS18SSX1_NE_peptides: protein co-purified with HA-SS18-SSX1 BAF complexes from soluble nuclear extract (NE), HEK-293T cells
# [3] = HA-SS18WT_CHR_peptides: HA-SS18 WT purification from nuclease-treated solubilized chromatin (CHR), HEK-293T, label = protein identified
# [4] = HA-SS18SSX1 purification, NE (soluble nuclear extract) fraction, HEK-293T, peptides per identified protein
# [5] = HA-SS18WT_NE_peptides: HA-SS18 WT complexes purified from nuclear extract (NE), HEK-293T, label = protein identified (Gene Symbol)
# [6] = HA-SS18WT_NE_peptides: proteins co-purified with HA-SS18 WT from nuclear extract (NE), HEK-293T
Molecule,Total,Unique,Total (total peptides) [1],Unique (unique peptides) [1],Total (peptides) [2],Unique (peptides) [2],Total (peptides) [3],Unique (peptides) [3],Total (total peptides) [4],Unique (unique peptides) [4],Total (peptides) [5],Unique (peptides) [5],Total (peptides) [6],Unique (peptides) [6]
B1,4,3,1,1,–,–,–,–,–,–,–,–,–,–
B2,3,3,–,–,1,1,5,5,–,–,–,–,–,–
B3,3,3,–,–,–,–,3,3,–,–,–,–,–,–
B4,4,3,2,2,–,–,–,–,–,–,–,–,–,–
B5,4,3,–,–,3,2,4,3,–,–,–,–,–,–
B6,3,3,–,–,–,–,3,3,39,24,42,26,–,–
B7,3,3,2,2,–,–,–,–,–,–,–,–,1,1
B8,4,3,–,–,–,–,–,–,–,–,–,–,–,–
